This note sets out measurements from US4207308A, “Process for purifying iodinated bile acid conjugates” (priority 1977, dated 1980).

The series can be described thus: Recovery of cholylglycine added to serum (RIA validation). Also noted: species or system patients. To be noted: cholylglycine added to three sera (two normal, one elevated), cholylglycine standard curve.

Where “and” joins values, the source holds several entries; their conditions need not be identical. Equal values may be shown once.

Take `C[C@H](CCC(=O)NCC(=O)O)[C@H]1CC[C@H]2[C@@H]3[C@H](O)C[C@@H]4C[C@H](O)CC[C@]4(C)[C@H]3C[C@H](O)[C@]12C` [Cholylglycine]: the Recovery is 120% and 123% and 133%.
